Experimental data taken from publication PMC7605441.
Where a chain is given by its changes, count along the chain named. These are yes or no findings as the source states them, for the method shown. In cells and extracts the contact can be indirect. Some binding calls cover weakened binding; strength is not graded here. Tags and fused reporters may be left off the sequences shown.

Chains of the proteins cited; added tags and fusions are not shown.
UniProt Q08297: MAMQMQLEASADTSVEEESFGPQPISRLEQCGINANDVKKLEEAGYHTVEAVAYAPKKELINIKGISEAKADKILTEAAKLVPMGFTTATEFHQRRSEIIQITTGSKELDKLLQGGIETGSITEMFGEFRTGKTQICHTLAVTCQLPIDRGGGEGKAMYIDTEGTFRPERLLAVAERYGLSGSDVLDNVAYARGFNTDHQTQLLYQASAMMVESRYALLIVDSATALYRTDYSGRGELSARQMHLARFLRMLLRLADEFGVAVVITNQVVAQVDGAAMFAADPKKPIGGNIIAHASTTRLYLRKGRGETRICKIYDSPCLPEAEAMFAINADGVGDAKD

Assays:
Test in all cases: co-IP; GFP-tagged RAD51 co-expressed with mCherry-fused RAD51AP1 (WT or mutant) in 293T/293FT cells; reciprocal immunoprecipitation (lanes 1-10 and lanes 11-20 of Fig. 7e) on protein A-agarose beads with antibody, EBN buffer (0.5% NP40, 150 mM NaCl), 5 h, 4 °C, immunoblot; asynchronous cells, or cells arrested in mitosis with nocodazole (WT only)
[1] = target: T1, murine RAD51AP1 S309A fused to mCherry (mouse) (UniProt Q8C551)
T1 sequence: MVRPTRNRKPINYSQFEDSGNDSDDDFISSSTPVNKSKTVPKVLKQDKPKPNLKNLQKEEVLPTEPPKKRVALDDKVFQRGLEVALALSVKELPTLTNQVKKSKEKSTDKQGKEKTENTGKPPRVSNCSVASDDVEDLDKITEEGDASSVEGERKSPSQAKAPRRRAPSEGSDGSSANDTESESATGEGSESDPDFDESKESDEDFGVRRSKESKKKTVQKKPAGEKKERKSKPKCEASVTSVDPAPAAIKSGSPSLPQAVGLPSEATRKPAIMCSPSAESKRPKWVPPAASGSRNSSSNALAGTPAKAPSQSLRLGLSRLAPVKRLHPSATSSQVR

[2] = target: T2, murine RAD51AP1 S309D fused to mCherry (mouse) (UniProt Q8C551)
T2 sequence: T1 sequence with A309D

[3] = target: T3, murine RAD51AP1 T305D fused to mCherry (mouse) (UniProt Q8C551)
T3 sequence: T1 sequence with T305D, A309S

[4] = target: T4, murine RAD51AP1 T305D/S309D fused to mCherry (mouse) (UniProt Q8C551)
T4 sequence: T1 sequence with T305D, A309D

[5] = target: T5, wild-type murine RAD51AP1 fused to mCherry (mouse) (UniProt Q8C551)
T5 sequence: T1 sequence with A309S

murine RAD51 with a C-terminal EGFP tag (from UniProt Q08297 1-339)
binding [1]: binds | binding [2]: binds | binding [3]: binds | binding [4]: binds weakly | binding [5]: binds
